A short description of data set [1]: Filtering abilities of the system of FIG. 13 (membrane shear-thinning unit + 0.2 μm filter). Conditions: for Output through filter (0.2μ pore size) at 100 psi / Output through shear-thinning unit (5 μm pore size) + filter (0.2 μm pore size) at 100 psi: membranes 25 mm.
The nature of data set [2]: Filtration through 0.2 Nalgene syringe filter with 25 mm cellulose acetate membranes. Conditions: 25 mm cellulose acetate membrane.
Setting [3] is: 1.0% solution at 50 psi, 25 mm diameter.

“Also recorded” adds a separate entry of the source. Where no end group is shown, it is not given here.

Consider `O` [Water, reference compound], for which, in data set [1] (at 25 psi, 25 mm diameter), the “Output through filter: 0.2 μm pore size” value is 42 mL/min, the “Output through shear-thinning unit (5 μm pore size) + filter (0.2 μm pore size)” value was 33 mL/min, the “Output through shear-thinning unit (20 μm pore size) + filter (0.2 μm pore size)” value was determined as 41 mL/min and the “Output through shear-thinning unit (41 μm pore size) + filter (0.2 μm pore size)” value turned out to be 35 mL/min.

As to “Arg-Ala-Asp-Ala-Arg-Ala-Asp-Ala-Arg-Ala-Asp-Ala-Arg-Ala-Asp-Ala [RADA16]”, in data set [1] (setting [3]), the “Output through shear-thinning unit (5 μm pore size) + filter (0.2 μm pore size)” value was found to be 1.6 mL/min, the “Output through shear-thinning unit (20 μm pore size) + filter (0.2 μm pore size)” value is recorded as 1.7 mL/min and the “Output through shear-thinning unit (41 μm pore size) + filter (0.2 μm pore size)” value is listed as 1.4 mL/min. For the same compound, in data set [1] (2.5% solution), the “Output through filter (0.2μ pore size) at 100 psi” value (“Output through filter … at 100 psi” for short) turned out to be 0 mL/min and the “Output through shear-thinning unit (5 μm pore size) + filter (0.2 μm pore size) at 100 psi” value (“Output through shear-thinning unit … at 100 psi” for short) was determined as 3.8 mL/min.

For “Ile-Glu-Ile-Lys-Ile-Glu-Ile-Lys-Ile-Glu-Ile-Lys-Ile [IEIK13]”, in data set [2] (1.5% solution), the “passage through the filter” value is on record as “could not be passed successfully through the filter”. In addition, in data set [2] (1.5% solution, listed as IEK13), the “passage through the filter” value was “not able to be filtered”. Moreover, in data set [1] (1.5% solution), the “Output through filter … at 100 psi” value was 0 mL/min and the “Output through shear-thinning unit … at 100 psi” value is reported as 12.5 mL/min.

On to “KLDLKLDLKLDL [KLD12, self-assembling peptide with repeats of KLDL, tested as solutions of 1 to 2.5%]”, for which the “passage through the filter” value in data set [2] (1% solution) is given as “passed successfully through the filter”; in data set [2] (1.5% solution), “passed successfully through the filter”; in data set [2] (2% solution), “could not be passed successfully through the filter”; in data set [2] (2.5% solution), “could not be passed successfully through the filter; also recorded: not able to be filtered”. The “Output through filter … at 100 psi” value in data set [1] (2.5% solution) was 0 mL/min. For the same compound, the “Output through shear-thinning unit … at 100 psi” value in data set [1] (2.5% solution) was found to be 11.4 mL/min.

Values taken from patent US12115264B2, “Sterilization and filtration of peptide compositions” (3-D Matrix, Ltd., priority 2014, dated 2024).
